The other results are listed elsewhere or left out.
Assays:
Test in all cases: log2 fold change, soluble protein after heating vs DMSO (PISA); higher = thermal stabilisation; K562 lysate, 10 uM; active = over 0.2 and 3.5 SD of the protein, either way, in both replicates (recomputed)
[1] = compound: C/C(=N\NC(=O)C1=CC(=CC=C1)S(=O)(=O)N2CCOCC2)/C3=C(C=CC(=C3)Cl)O
Method in brief: (§1)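 Pellets of K562 cells were dounce-homogenised in PBS pH 7.4 with 1 mM MgCl2, and the crude extract was held at 1 mg/mL protein for a 30 min treatment with 10 μM compound. Aliquots were heated for 3 min over 48°C-58°C and pooled before NP-40 was added to 0.5% at 4°C. The supernatant from 21,000xg for 90 min was quantified by TMTpro 16plex LC-MS/MS with channel sums equalised. Values are reported from duplicates as log-two fold change in thermal stability relative to solvent controls.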

The chains behind the UniProt entries cited, without tags or fusion partners. Where a name states a change or a piece, a line headed by the entry shows the natural chain unless it says otherwise.
UniProt Q9H2C2: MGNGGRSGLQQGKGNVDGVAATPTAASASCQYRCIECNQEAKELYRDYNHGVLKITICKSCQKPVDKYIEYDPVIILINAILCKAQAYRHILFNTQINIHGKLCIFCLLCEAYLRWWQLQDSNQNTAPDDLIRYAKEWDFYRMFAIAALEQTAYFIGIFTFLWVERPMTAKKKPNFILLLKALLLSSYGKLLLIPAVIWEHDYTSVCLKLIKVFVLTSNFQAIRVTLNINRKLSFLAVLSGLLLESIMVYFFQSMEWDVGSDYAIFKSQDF
UniProt Q8IUR7, whole entry, looked up: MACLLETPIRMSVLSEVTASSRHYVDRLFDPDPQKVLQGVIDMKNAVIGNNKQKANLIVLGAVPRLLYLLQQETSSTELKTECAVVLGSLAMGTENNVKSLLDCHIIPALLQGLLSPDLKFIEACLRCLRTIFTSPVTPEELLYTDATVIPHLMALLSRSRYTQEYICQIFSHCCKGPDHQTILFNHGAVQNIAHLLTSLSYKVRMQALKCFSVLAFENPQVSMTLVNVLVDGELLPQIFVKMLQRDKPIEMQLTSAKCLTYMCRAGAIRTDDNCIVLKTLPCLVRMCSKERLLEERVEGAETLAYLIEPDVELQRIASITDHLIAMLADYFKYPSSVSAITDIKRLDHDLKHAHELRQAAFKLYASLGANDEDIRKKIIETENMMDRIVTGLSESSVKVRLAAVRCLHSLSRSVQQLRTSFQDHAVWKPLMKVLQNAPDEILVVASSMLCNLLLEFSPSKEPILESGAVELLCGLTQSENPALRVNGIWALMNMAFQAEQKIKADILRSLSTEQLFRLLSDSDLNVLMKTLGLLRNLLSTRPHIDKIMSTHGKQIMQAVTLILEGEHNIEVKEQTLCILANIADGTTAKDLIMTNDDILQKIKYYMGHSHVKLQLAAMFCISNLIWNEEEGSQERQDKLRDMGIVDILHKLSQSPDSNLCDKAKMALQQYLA
UniProt Q9H6L4: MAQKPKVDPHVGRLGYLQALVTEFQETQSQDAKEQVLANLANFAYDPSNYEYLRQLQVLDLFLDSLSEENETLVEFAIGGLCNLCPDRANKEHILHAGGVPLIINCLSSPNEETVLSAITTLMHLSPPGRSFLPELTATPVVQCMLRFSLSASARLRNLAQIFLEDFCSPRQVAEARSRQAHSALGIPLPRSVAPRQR
UniProt P02656: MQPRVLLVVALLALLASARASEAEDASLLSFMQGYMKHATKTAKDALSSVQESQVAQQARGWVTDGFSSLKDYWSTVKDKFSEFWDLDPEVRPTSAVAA
UniProt Q5VV41: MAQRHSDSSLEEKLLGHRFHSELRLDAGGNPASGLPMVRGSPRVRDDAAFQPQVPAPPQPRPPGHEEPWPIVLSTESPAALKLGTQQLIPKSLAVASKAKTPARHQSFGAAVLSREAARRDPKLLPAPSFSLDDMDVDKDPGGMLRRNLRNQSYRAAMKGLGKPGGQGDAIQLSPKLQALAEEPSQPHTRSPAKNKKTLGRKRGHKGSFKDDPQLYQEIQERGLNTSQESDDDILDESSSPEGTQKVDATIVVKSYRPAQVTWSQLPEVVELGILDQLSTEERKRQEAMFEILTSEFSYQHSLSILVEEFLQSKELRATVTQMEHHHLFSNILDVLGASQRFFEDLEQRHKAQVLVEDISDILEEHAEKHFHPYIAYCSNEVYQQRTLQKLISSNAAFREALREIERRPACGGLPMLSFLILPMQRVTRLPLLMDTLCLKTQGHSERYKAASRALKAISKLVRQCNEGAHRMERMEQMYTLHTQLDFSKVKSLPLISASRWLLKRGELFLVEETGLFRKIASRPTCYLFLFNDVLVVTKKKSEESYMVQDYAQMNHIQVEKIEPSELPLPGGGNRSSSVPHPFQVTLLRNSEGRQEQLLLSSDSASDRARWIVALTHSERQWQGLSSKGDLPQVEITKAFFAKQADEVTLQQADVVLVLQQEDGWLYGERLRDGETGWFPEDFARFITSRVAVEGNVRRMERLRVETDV
UniProt Q68CP9, whole entry, looked up: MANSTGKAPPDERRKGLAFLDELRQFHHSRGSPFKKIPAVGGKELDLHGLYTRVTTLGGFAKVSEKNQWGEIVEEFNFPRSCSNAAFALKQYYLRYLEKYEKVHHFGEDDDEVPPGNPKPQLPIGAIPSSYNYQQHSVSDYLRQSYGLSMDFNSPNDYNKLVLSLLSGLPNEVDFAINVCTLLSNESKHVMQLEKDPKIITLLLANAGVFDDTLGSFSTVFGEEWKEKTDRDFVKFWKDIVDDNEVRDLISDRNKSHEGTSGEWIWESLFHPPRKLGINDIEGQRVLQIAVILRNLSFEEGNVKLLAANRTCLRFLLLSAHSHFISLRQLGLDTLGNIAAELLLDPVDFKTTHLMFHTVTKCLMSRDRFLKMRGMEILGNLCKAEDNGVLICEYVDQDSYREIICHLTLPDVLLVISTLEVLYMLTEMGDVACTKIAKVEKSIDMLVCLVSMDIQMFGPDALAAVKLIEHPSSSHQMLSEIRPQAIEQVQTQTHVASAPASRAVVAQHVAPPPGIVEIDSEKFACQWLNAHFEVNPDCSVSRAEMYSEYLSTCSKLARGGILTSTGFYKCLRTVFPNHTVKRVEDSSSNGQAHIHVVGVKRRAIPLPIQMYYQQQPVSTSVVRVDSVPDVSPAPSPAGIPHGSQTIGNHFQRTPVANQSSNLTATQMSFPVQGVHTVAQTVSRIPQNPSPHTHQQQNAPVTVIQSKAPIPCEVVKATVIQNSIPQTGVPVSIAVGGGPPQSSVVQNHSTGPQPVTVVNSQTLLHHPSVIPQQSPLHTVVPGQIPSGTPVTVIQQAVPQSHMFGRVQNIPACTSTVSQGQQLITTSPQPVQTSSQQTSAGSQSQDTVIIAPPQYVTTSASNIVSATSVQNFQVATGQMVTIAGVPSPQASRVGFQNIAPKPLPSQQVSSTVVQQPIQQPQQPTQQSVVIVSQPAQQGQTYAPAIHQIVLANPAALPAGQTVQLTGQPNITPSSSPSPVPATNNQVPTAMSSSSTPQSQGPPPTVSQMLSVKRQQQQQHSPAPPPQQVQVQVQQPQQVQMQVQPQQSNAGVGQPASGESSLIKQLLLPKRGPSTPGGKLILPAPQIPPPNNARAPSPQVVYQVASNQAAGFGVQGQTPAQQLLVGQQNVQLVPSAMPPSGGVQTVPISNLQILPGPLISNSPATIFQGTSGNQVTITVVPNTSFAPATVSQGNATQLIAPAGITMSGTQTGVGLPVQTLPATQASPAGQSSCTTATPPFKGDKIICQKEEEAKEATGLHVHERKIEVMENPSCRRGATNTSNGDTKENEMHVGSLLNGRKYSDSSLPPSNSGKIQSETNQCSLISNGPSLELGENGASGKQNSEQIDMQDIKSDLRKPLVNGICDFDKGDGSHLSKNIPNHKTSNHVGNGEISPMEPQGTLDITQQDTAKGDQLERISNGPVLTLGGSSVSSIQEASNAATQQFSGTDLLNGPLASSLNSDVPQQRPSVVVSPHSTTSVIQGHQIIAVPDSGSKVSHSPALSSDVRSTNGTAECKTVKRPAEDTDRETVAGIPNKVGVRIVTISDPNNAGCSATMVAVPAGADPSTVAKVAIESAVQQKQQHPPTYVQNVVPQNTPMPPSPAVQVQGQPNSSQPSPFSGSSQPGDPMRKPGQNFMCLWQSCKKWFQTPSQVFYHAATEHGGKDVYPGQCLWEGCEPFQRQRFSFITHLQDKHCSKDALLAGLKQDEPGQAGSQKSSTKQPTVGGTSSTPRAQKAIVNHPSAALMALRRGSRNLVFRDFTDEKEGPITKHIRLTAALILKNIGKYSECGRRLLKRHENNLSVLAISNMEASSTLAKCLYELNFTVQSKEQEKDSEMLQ
UniProt Q13508: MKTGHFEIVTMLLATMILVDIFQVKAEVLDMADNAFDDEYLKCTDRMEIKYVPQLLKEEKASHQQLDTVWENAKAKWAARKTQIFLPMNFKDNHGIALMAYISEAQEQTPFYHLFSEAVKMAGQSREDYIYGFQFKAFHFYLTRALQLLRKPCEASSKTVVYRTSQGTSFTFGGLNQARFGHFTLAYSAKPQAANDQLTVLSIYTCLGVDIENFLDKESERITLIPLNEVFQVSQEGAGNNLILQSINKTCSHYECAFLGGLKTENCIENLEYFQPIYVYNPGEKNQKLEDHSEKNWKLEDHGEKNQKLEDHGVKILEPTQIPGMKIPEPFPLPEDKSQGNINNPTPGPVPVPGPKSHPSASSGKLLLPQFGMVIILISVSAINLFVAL
UniProt Q66PJ3: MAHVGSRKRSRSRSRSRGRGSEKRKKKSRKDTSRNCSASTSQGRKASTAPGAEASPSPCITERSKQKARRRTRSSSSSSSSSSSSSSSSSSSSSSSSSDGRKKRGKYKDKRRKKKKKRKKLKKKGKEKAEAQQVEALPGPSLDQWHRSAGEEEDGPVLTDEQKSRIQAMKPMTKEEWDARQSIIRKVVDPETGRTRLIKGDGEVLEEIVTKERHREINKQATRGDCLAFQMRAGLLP
UniProt Q8IWW6: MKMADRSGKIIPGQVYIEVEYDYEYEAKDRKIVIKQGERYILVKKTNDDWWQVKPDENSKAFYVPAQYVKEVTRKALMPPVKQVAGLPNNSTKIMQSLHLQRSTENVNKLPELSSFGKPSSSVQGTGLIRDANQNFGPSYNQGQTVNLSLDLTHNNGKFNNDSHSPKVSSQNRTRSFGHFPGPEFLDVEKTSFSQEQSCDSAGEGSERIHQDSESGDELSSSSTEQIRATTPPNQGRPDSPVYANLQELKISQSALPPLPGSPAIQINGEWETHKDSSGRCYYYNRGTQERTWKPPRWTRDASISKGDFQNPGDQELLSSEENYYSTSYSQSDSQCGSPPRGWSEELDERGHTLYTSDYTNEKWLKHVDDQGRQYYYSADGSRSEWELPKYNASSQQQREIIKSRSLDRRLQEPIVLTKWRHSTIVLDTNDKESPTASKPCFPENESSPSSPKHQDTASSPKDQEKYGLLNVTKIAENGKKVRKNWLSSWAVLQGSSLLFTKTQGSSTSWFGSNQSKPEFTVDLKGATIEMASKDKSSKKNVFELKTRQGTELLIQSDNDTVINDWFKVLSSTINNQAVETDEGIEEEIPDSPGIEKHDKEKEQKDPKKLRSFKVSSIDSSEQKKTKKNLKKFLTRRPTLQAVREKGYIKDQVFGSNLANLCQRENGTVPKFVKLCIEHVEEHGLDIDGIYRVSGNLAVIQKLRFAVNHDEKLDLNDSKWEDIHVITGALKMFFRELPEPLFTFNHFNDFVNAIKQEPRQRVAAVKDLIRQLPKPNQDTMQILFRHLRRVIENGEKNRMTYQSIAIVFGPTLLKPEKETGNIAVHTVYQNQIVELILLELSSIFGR
UniProt Q9H0F7: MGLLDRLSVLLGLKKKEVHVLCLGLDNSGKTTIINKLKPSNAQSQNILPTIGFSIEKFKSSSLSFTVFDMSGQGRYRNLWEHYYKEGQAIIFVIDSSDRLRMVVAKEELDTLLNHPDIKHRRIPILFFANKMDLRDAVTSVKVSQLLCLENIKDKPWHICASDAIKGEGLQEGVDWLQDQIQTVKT
UniProt Q96B67: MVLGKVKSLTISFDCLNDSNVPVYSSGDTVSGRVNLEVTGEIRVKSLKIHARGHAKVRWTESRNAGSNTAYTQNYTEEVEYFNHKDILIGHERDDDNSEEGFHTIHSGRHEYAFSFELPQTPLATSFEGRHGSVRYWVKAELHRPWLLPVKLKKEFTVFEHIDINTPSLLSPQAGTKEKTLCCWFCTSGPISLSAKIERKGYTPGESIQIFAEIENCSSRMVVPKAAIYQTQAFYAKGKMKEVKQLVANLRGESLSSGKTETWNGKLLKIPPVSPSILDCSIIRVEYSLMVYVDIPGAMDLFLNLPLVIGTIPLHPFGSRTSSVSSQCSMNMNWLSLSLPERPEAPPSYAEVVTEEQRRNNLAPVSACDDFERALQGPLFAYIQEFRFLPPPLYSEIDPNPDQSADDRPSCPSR
UniProt Q9Y689: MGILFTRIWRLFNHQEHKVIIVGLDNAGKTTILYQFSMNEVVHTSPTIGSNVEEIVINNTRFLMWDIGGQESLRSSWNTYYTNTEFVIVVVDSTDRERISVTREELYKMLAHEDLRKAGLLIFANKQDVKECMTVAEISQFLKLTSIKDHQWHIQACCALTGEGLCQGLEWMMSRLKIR
UniProt P53367: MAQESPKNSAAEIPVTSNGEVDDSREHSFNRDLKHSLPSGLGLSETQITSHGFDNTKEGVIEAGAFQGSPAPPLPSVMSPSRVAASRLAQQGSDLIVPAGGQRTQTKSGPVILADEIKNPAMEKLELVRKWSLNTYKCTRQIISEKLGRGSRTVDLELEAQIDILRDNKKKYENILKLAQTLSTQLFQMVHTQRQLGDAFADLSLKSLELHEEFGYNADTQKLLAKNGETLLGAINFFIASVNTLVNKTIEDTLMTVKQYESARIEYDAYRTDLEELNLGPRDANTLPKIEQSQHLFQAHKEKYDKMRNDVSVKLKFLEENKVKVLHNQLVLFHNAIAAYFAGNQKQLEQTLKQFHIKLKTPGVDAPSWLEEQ
UniProt Q9H2J1: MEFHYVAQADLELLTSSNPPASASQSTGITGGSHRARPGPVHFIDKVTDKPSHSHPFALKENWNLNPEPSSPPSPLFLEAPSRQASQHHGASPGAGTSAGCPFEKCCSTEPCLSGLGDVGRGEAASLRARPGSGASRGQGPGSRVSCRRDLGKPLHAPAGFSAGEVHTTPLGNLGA

[2] = compound: C1=CC2=C(C=CC(=C2)/C=C\3/C(=O)NC(=NCC4=CC=CS4)S3)N=C1
Method in brief: as §1

[3] = compound: C1=CC2=NC=CN=C2C=C1/C=C/3\C(=O)NC(=O)S3
Method in brief: as §1

[4] = compound: C1=CC=C(C=C1)C2=NC(=C(N2)C3=CC=NC=C3)C4=CC(=C(C=C4)Cl)O
Method in brief: as §1

[5] = compound: C1=CC=C2C(=C1)C3=NNC4=CC=CC(=C43)C2=O
Method in brief: as §1

[6] = compound: C1CCN(C1)C(=O)NC2=CC=CC(=C2)NC3=NC=C(C(=N3)NCCC4=CN=CN4)Br
Method in brief: as §1

[7] = compound: C1CN(CCC1(CC2=CC=C(C=C2)Cl)N)C3=NC=NC4=C3C=CN4
Method in brief: as §1

IRAK-1-4 Inhibitor I = compound: C1COCCN1CCN2C3=CC=CC=C3N=C2NC(=O)C4=CC(=CC=C4)[N+](=O)[O-] [IRAK-1-4 Inhibitor I]
Method in brief: as §1

ibrutinib = compound: C=CC(=O)N1CCC[C@@H](n2nc(-c3ccc(Oc4ccccc4)cc3)c3c(N)ncnc32)C1 [ibrutinib]
Method in brief: as §1

[8] = compound: CC(=O)c1cnc2ccc(-c3cc(Cl)c(O)c(Cl)c3)nc2c1N[C@H]1CC[C@H](CN(C)C)CC1
Method in brief: as §1

ralimetinib = compound: CC(C)(C)Cn1c(N)nc2ccc(-c3[nH]c(C(C)(C)C)nc3-c3ccc(F)cc3)nc21 [ralimetinib]
Method in brief: as §1

[9] = compound: CC(C)(O)CC(=O)NCCn1ccc2ncnc(Nc3ccc(Oc4cccc(C(F)(F)F)c4)c(Cl)c3)c21
Method in brief: as §1

[10] = compound: CC1=C(C(CC(=O)N1)C2=CC=C(C=C2)C(F)(F)F)C(=O)NC3=C(C=C4C(=C3)C=NN4)F
Method in brief: as §1

[11] = compound: CC1=C(C2=C(C=C1)C(=O)C3=CC=CC=C3N2CCCN)C
Method in brief: as §1

[12] = compound: CC1=C(C=C(C=C1)NC(=O)C2=CC(=CC=C2)C(C)(C)C#N)NC3=CC4=C(C=C3)N=CN(C4=O)C
Method in brief: as §1

[13] = compound: CC1=C(C=C(C=C1)NC(=O)C2=CC(=CC=C2)N(C)C)NC(=O)C3=CC=C(C=C3)O
Method in brief: as §1

[14] = compound: CC1=CC=C(C=C1)SC2=C3C=C(SC3=CN=C2)C(=O)N
Method in brief: as §1

erlotinib = compound: C#Cc1cccc(Nc2ncnc3cc(OCCOC)c(OCCOC)cc23)c1 [erlotinib]
Method in brief: as §1

[15] = compound: C1=CC(=CC=C1C2=NC3=C(N2)C=C(C=C3)C(=O)N)OC4=CC=C(C=C4)Cl
Method in brief: as §1

[16] = compound: CC(C)C1=C2N=C(C=C(N2N=C1)NCC3=CC=CC=C3)NCCCCCCN
Method in brief: as §1

Measured: log2 fold change

ARV1 (UniProt Q9H2C2)
inactive: [1] 0.021 | [2] 0.01 | [3] 0.07 | [4] -0.059 | [5] 0.005 | [6] 0.168 | [7] 0.072 | IRAK-1-4 Inhibitor I -0.014 | ibrutinib -0.099 | [8] 0.065 | ralimetinib 0.044 | [9] -0.011 | [10] 0.104 | [11] 0.334 | [12] 0.072 | [13] -0.042 | [14] 0.028

ASAP2 (UniProt O43150)
inactive: [8] 0.046 | [14] -0.061

ARMC8 isoform 6 (UniProt Q8IUR7)
inactive: erlotinib -0.088 | [15] -0.009 | [8] -0.019 | [16] 0.015 | [14] -0.005

ART4 (UniProt Q93070)
inactive: [1] -0.05 | [2] 0.026 | [3] -0.028 | [5] 0.044 | [6] -0.017 | [7] 0.007 | ibrutinib 0.093

APTX isoform 4 (UniProt Q7Z2E3)
inactive: [10] -0.189

ARMC7 (UniProt Q9H6L4)
inactive: [1] -0.2 | [2] 0.415 | [5] 0.104 | [11] -0.11 | [12] 0.038

APOC3 (UniProt P02656)
inactive: [1] 0.057 | [2] 0.128 | [5] 0.038 | [6] 0.332 | [7] -0.126 | [11] -0.039 | [12] 0.185

ARHGEF12 isoform 2 (UniProt Q9NZN5)
inactive: [6] -0.104 | [7] 0.038 | [12] -0.18

ARMC10 isoform 2 (UniProt Q8N2F6)
inactive: [4] 0.051 | [6] 0.185 | [7] 0.112 | IRAK-1-4 Inhibitor I 0.063 | ralimetinib -0.141 | [9] 0.033 | [11] -0.063 | [13] 0.003

ARHGEF16 (UniProt Q5VV41)
inactive: erlotinib -0.015 | [15] -0.027 | [6] -0.453 | [7] 0.062 | [16] 0.027

ARID2 (UniProt Q68CP9)
inactive: [1] 0.005 | [2] -0.018 | [3] 0.047 | [4] 0.178 | [5] -0.016 | [6] -0.052 | [7] -0.014 | IRAK-1-4 Inhibitor I 0.067 | ibrutinib -0.013 | [8] 0 | ralimetinib 0.037 | [9] -0.032 | [10] 0.056 | [11] -0.093 | [12] 0.016 | [13] 0.058 | [14] 0.006

API5 isoform 1 (UniProt Q9BZZ5)
inactive: [4] 0.048 | IRAK-1-4 Inhibitor I 0 | ralimetinib -0.053 | [9] 0.038 | [10] -0.152 | [12] -0.055 | [13] -0.023

ARHGEF2 (UniProt V9GYF0)
inactive: [1] -0.056 | [2] -0.125 | [4] 0.012 | [5] 0.078 | [6] -0.009 | [7] -0.058 | IRAK-1-4 Inhibitor I 0.062 | [8] 0.02 | ralimetinib -0.041 | [9] -0.126 | [10] -0.055 | [11] -0.011 | [13] 0.008 | [14] -0.07

ART3 (UniProt Q13508)
inactive: [4] -0.174 | IRAK-1-4 Inhibitor I 0.073 | ralimetinib 0.19 | [9] -0.143 | [13] -0.383

ARL6IP4 isoform 2 (UniProt Q66PJ3)
inactive: [8] 0.039 | [14] 0.112

APOD (UniProt P05090)
inactive: [6] 0.165 | [7] -0.125 | [8] -0.09 | [11] -0.061 | [12] -0.025 | [14] -0.102

ASB1 (UniProt Q9Y576)
inactive: [1] -0.315 | [2] 0.056 | [3] 0.068 | [4] 0.034 | [5] 0.015 | [6] -0.14 | [7] 0.344 | IRAK-1-4 Inhibitor I 0.008 | ibrutinib -0.023 | ralimetinib 0.194 | [9] -0.096 | [10] 0.047 | [12] 0.012 | [13] 0.109

ARMC8 (UniProt C9JAA7)
inactive: [6] 0.169 | [7] -0.243

ARHGAP12 isoform 3 (UniProt Q8IWW6)
inactive: [1] -0.158 | [2] -0.083 | [5] 0.047 | [11] -0.005

ARL6 isoform 2 (UniProt Q9H0F7)
inactive: erlotinib -0.103 | [15] -0.302 | [16] 0.072 | [12] -0.115

ARRDC3 (UniProt Q96B67)
inactive: erlotinib 0.024 | [15] 0.012 | [16] -0.201

ARHGAP27 (UniProt Q6ZUM4)
inactive: [1] -0.087 | [2] -0.1 | [3] 0.163 | [5] 0.066 | ibrutinib 0.02

APOL1 isoform 2 (UniProt O14791)
inactive: [6] 0.084 | [7] 0.09 | [11] -0.08

ARHGAP15 (UniProt Q53QZ3)
inactive: [6] 0.049 | [7] 0.149 | [8] -0.1 | [12] -0.268 | [14] 0.038

ARL6IP4 isoform 4 (UniProt Q66PJ3)
inactive: [1] 0.138 | [2] 0.048 | [5] 0.018 | [8] -0.059 | [14] 0.071

ARL5A (UniProt Q9Y689)
inactive: [1] 0.076 | [2] -0.037 | [4] -0.012 | [5] -0.075 | [6] 0 | [7] -0.008 | IRAK-1-4 Inhibitor I 0 | [8] -0.036 | ralimetinib 0.065 | [9] -0.029 | [10] 0.072 | [11] -0.195 | [12] -0.029 | [13] -0.022 | [14] 0.03

APOH (UniProt P02749)
inactive: [3] -0.022 | ibrutinib -0.008 | [8] -0.102 | [12] -0.109 | [14] -0.048

ARFIP1 isoform 2 (UniProt P53367)
inactive: [1] 0 | [2] -0.045 | [3] -0.026 | [4] 0.034 | [5] -0.216 | [6] -0.012 | [7] -0.028 | IRAK-1-4 Inhibitor I -0.02 | ibrutinib 0.002 | [8] 0.028 | ralimetinib 0.096 | [9] -0.047 | [10] -0.139 | [11] 0.018 | [13] 0.021 | [14] 0.001

ARAP3 (UniProt Q8WWN8)
inactive: erlotinib 0.047 | [15] -0.087 | [6] 0.029 | [7] -0.148 | [16] -0.133 | [10] -0.003 | [11] 0.014

Copied from the results shown (7 entries):
ARHGAP27 (UniProt Q6ZUM4)
inactive: [1] -0.087 | [2] -0.1 | [3] 0.163 | [5] 0.066 | ibrutinib 0.02

APOL1 isoform 2 (UniProt O14791)
inactive: [6] 0.084 | [7] 0.09 | [11] -0.08

ARHGAP15 (UniProt Q53QZ3)
inactive: [6] 0.049 | [7] 0.149 | [8] -0.1 | [12] -0.268 | [14] 0.038

ARL6IP4 isoform 4 (UniProt Q66PJ3)
inactive: [1] 0.138 | [2] 0.048 | [5] 0.018 | [8] -0.059 | [14] 0.071

ARL5A (UniProt Q9Y689)
inactive: [1] 0.076 | [2] -0.037 | [4] -0.012 | [5] -0.075 | [6] 0 | [7] -0.008 | IRAK-1-4 Inhibitor I 0 | [8] -0.036 | ralimetinib 0.065 | [9] -0.029 | [10] 0.072 | [11] -0.195 | [12] -0.029 | [13] -0.022 | [14] 0.03

APOH (UniProt P02749)
inactive: [3] -0.022 | ibrutinib -0.008 | [8] -0.102 | [12] -0.109 | [14] -0.048

ARFIP1 isoform 2 (UniProt P53367)
inactive: [1] 0 | [2] -0.045 | [3] -0.026 | [4] 0.034 | [5] -0.216 | [6] -0.012 | [7] -0.028 | IRAK-1-4 Inhibitor I -0.02 | ibrutinib 0.002 | [8] 0.028 | ralimetinib 0.096 | [9] -0.047 | [10] -0.139 | [11] 0.018 | [13] 0.021 | [14] 0.001

(further entries)

ARRDC1-AS1 (UniProt Q9H2J1)
inactive: [10] -0.286

ARL6IP4 isoform 7 (UniProt Q66PJ3)
inactive: [3] -0.157 | ibrutinib -0.271
